Measurements as given in patent US20230057012A1, “TGFB INHIBITORS AND USE THEREOF” (Scholar Rock, Inc., priority 2020, published 2023).
These are yes or no findings as the source states them, for the method shown. Some results given as binding are weak or reduced against the parent protein; the word gives no strength.

The chains behind the UniProt entries cited, without tags or fusion partners. Where a name states a change or a piece, a line headed by the entry shows the natural chain unless it says otherwise.
UniProt Q14766: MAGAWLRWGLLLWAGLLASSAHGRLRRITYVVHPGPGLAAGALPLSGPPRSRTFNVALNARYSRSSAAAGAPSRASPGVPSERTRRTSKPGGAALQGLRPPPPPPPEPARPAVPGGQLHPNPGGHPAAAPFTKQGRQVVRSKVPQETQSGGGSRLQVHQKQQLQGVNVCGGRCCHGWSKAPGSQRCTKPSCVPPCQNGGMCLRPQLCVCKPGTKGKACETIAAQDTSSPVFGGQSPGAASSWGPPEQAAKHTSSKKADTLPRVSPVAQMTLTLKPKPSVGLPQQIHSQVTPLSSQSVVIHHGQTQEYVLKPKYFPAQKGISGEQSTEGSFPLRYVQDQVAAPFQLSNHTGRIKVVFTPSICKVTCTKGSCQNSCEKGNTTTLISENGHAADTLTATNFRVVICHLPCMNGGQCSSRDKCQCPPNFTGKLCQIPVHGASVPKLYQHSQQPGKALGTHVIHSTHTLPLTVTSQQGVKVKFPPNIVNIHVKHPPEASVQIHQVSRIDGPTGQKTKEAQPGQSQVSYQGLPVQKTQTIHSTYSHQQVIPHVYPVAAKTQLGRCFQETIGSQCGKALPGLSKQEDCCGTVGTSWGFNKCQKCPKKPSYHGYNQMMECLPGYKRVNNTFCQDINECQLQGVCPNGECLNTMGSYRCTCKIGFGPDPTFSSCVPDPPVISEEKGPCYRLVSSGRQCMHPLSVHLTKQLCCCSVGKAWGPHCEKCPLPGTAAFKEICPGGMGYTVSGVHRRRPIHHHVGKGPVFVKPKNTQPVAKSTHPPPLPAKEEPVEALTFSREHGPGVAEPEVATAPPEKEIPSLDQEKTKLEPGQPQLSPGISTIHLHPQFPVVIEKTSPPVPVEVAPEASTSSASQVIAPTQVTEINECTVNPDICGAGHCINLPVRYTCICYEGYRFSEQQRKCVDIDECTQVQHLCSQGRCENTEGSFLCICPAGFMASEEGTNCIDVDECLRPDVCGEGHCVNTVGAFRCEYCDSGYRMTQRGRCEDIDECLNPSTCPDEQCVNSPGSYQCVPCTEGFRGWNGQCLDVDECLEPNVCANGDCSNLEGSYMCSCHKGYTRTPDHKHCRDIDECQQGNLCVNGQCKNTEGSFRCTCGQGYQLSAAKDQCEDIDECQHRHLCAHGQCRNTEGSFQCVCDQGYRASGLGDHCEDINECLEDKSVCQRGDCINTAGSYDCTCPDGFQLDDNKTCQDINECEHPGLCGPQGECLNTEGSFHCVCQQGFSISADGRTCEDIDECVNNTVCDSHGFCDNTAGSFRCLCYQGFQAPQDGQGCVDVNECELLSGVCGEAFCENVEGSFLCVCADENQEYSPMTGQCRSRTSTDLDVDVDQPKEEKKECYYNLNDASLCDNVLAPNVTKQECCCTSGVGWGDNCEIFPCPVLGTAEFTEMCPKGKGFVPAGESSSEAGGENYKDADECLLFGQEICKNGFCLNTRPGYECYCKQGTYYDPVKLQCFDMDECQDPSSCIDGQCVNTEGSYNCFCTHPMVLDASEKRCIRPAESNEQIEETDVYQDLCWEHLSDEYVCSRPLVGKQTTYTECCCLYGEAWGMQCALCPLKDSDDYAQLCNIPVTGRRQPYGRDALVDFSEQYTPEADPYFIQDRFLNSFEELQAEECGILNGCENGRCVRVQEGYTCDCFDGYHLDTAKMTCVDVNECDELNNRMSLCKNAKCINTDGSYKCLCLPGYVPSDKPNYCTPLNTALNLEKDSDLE
UniProt Q61810: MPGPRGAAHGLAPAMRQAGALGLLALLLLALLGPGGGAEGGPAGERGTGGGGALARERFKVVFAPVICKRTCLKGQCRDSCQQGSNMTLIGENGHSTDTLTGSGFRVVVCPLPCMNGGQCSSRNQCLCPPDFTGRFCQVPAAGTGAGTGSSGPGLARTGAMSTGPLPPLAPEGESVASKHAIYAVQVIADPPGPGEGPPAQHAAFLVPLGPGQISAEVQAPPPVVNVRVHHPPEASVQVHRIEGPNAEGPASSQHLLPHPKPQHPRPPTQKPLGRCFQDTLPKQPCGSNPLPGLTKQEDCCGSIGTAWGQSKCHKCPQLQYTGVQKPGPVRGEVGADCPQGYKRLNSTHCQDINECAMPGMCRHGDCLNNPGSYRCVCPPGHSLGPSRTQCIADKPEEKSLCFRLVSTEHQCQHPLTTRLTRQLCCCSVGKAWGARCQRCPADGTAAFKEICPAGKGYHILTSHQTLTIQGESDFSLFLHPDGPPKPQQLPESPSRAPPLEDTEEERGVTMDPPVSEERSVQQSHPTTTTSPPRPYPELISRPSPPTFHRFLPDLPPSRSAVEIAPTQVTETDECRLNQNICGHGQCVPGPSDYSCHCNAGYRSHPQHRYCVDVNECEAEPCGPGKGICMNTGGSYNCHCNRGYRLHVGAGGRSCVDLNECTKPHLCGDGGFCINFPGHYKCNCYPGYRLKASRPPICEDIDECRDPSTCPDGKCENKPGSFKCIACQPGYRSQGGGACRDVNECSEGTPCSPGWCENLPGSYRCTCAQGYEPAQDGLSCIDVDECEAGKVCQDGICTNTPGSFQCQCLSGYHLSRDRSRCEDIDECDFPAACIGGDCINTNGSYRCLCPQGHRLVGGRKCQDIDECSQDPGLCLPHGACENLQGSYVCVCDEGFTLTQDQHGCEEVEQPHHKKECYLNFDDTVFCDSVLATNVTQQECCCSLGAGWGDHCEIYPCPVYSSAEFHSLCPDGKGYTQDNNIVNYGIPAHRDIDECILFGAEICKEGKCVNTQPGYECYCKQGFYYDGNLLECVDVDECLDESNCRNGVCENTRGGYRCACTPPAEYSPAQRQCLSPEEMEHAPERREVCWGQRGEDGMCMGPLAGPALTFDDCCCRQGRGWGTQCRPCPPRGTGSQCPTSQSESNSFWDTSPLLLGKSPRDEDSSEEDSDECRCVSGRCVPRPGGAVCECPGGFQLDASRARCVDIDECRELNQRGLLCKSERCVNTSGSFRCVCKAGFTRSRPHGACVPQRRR
UniProt G3XA59: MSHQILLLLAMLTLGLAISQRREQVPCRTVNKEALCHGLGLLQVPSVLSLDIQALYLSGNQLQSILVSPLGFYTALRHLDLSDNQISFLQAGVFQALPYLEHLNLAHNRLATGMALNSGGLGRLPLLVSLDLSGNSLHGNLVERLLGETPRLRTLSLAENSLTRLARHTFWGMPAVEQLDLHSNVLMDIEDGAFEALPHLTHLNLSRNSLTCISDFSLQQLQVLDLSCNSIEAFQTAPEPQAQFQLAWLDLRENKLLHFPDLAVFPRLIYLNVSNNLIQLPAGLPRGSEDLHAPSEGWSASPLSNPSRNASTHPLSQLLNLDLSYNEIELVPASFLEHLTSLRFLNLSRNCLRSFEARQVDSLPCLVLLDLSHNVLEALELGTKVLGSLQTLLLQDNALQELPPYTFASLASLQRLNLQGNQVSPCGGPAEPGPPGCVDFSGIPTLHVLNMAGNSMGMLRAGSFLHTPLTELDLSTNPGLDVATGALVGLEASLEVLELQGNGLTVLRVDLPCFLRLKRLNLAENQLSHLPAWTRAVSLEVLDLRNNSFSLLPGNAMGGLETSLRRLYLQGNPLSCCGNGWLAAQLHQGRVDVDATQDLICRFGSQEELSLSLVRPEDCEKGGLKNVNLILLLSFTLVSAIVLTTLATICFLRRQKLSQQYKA
UniProt Q8CG19: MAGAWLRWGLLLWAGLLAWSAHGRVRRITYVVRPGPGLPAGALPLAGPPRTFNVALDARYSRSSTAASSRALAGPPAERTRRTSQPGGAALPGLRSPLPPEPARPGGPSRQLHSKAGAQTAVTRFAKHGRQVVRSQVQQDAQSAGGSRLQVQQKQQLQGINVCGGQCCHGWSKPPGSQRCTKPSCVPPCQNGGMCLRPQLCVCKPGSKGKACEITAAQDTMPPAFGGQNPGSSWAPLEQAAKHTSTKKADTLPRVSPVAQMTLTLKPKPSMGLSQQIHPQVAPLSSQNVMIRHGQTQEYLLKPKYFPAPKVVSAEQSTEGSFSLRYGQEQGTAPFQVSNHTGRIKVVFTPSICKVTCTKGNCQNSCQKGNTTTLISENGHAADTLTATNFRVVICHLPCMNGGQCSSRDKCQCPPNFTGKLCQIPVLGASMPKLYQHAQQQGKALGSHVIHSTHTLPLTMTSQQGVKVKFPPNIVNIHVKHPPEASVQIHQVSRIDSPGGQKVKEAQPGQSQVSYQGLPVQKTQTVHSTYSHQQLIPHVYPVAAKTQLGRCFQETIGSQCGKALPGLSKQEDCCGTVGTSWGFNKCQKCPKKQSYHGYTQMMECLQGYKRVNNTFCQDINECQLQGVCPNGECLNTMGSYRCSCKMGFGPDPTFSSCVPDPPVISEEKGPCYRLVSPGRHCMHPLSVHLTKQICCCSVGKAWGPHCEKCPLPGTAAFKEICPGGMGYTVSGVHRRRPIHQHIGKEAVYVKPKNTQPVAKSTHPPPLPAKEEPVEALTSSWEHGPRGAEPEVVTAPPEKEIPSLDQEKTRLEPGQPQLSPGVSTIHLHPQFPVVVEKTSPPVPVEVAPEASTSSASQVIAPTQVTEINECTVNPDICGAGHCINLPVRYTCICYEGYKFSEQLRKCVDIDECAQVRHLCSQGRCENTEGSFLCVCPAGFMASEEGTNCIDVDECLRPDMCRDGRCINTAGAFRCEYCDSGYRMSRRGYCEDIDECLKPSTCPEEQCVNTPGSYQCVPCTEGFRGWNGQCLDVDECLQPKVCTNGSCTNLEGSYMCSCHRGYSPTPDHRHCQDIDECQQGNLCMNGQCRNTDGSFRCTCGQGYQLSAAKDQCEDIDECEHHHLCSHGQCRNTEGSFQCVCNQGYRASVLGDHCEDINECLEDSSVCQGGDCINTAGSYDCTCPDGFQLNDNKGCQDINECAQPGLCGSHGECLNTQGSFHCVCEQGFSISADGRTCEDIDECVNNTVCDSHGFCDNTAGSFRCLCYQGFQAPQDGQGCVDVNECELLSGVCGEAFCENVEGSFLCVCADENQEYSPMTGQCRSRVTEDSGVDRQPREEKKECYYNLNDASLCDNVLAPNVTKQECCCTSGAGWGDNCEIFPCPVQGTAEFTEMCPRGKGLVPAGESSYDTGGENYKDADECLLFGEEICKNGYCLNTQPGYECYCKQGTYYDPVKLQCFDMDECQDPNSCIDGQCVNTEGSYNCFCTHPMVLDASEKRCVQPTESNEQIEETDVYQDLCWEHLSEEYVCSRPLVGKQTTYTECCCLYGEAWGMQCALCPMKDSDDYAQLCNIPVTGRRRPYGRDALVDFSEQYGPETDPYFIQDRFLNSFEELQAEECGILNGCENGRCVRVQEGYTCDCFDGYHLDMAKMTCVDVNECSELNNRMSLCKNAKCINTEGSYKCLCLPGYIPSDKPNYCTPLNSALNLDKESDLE

Experiments:
[1] = biological target: human LTBP1-proTGFβ1 complex (human) (UniProt Q14766); assay: ELISA, purified hIgG4 titrated from about 0.002 to 100 nM, readout RLU, panel hLTBP1-TGFb1
[2] = biological target: murine LTBP3-proTGFβ1 complex (mouse; human) (UniProt Q61810); assay: ELISA, purified hIgG4 titrated from about 0.002 to 100 nM, readout RLU, panel mLTBP3-TGFb1
[3] = biological target: human LTBP3-proTGFβ1 complex (human) (UniProt Q9NS15); assay: ELISA, purified hIgG4 titrated from about 0.002 to 100 nM, readout RLU, panel hLTBP3-TGFb1
[4] = biological target: murine GARP-proTGFβ1 complex (mouse; human) (UniProt G3XA59); assay: ELISA, purified hIgG4 titrated from about 0.002 to 100 nM, readout RLU, panel mGARP-TGFb1
[5] = biological target: murine LTBP1-proTGFβ1 complex (mouse; human) (UniProt Q8CG19); assay: ELISA, purified hIgG4 titrated from about 0.002 to 100 nM, readout RLU, panel mLTBP1-TGFb1

binding [1]: binds
binding [2]: binds
binding [3]: binds
binding [4]: binds
binding [5]: binds
B1: Ab46 hIgG4 (antibody, V domains shown)
VH: EVQLLESGGGLVQPGGSLRLSCAASGFTFADYAMTWVRQAPGKGLEWVSAISGSGAATYFADSVKGRFTISRDNSKNTLYLQMNSLRAEDTAVYYCARVSSGHWDYDYWGQGTLVTVSS
VL: DIQLTQSPSSLSASVGDRVTITCRASQSISSYLNWYQQKPGKAPKLLIYAASGLESGVPSRFSGSGSGTDFTLTISSLQPEDFATYYCQQTYGVPLTFGGGTKVEIK
